Reference: patent US20070207120A1, “Selective Killing Of Cancer Cells By Induction Of Acetyltransferase Via Tnf-Alpha And Il-6” (priority 2004, published 2007)

Test system: transformed WI38 VA13 cells
Assay: Cytokine and deacetylase inhibitor treatment, transformed cells
Type: cell-based, human
Conditions: SAHA 5 μg/ml alone and in combination with cytokines
Protocol: Human cells WI38 (ATCC number CCL-75), WI38 VA13 (ECACC number 85062512), SaOS2 (ECACC number 89050205), U20S (ATCC number HTB-96), HeLa (CCL-2), HEK 293 (ATCC number CRL-1573) and Hs68 (ATCC number CRL-1635) were obtained from ATCC, ECACC or CR-UK cell services. All cells were cultured as monolayers in 10% foetal bovine serum in Dulbecco's minimal essential medium at 37° C. in 5% CO2, except SaOS2 cells which were cultured in McCoy's 5a medium supplemented with 1.5 mM L-glutamine and 15% foetal bovine serum. VA13 cells are WI38 primary fibroblasts transformed with SV40 virus and therefore share the same genetic background. To measure cell viability and total cell number, cells in suspension and adherent cells were collated and analysed by resuspending with a known concentration of CaliBRITE unlabelled beads (Becton Dickinson) plus propidium iodide and counting the number of live and dead cells per 3000 beads using a FACSCalibur flow cytometer (Becton Dickinson). Alternatively, an automated trypan blue assay using a Vi-Cell XR Cell Viability Analyzer (Beckman Coulter) was employed. […] For cytokine treatment in combination with deacetylase inhibitors, cells were harvested and counted 48 hours after addition of deacetylase inhibitor.

## O=C(CCCCCCC(=O)Nc1ccccc1)NO [SAHA, suberoylanilide hydroxamic acid]
  killing of VA13 cells: very effective
